Experimental data published in article PMC11253597.
Substitutions are numbered along the chain they refer to. These are yes or no findings as the source states them, for the method shown. Binding seen in cells or lysates may run through a third protein. Some results given as binding are weak or reduced against the parent protein; the word gives no strength. Where a sequence is shown, tags or fusion partners need not be part of it.

What was measured:
Assay in all cases: co-IP; GFP-tagged β-2-syntrophin (GFP::SNTB2) variants co-expressed with mCherry::SseM in SNTB2 KO1 HEK293 cells; GFP-trap immunoprecipitation, immunoblot
GFP::SNTB2^H176V (human) = target: T1, GFP::SNTB2^H176V (human) (UniProt Q13425)
T1 sequence: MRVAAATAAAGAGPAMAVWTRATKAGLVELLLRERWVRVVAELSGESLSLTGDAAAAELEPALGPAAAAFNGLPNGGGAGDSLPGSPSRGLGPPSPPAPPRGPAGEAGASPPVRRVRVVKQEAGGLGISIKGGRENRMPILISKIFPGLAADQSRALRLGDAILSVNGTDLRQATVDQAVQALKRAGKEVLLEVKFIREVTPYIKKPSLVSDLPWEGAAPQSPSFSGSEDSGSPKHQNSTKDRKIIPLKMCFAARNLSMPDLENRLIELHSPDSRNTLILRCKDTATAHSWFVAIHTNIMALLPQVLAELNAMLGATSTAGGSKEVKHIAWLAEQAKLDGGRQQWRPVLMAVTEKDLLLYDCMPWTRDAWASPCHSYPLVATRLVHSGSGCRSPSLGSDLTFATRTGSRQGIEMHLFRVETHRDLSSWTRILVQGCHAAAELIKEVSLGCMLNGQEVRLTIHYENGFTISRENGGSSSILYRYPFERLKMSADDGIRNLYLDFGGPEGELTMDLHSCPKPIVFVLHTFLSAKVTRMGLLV

GFP::SNTB2^H176Y (human) = target: T2, GFP::SNTB2^H176Y (human) (UniProt Q13425)
T2 sequence: T1 sequence with V176Y

[1] = target: T3, GFP::SNTB2^GLGI4A (human) (UniProt Q13425)
T3 sequence: T1 sequence with G125A, L126A, G127A, I128A, V176H

GFP::SNTB2 (human) = target: T4, GFP::SNTB2 (human) (UniProt Q13425)
T4 sequence: T1 sequence with V176H

binding (GFP::SNTB2^H176V (human)): binds
binding (GFP::SNTB2^H176Y (human)): binds
binding [1]: binds
binding (GFP::SNTB2 (human)): binds
B1: α-dystrobrevin (protein, UniProt Q9Y4J8 1-743)
chain: MIEDSGKRGNTMAERRQLFAEMRAQDLDRIRLSTYRTACKLRFVQKKCNLHLVDIWNVIEALRENALNNLDPNTELNVSRLEAVLSTIFYQLNKRMPTTHQIHVEQSISLLLNFLLAAFDPEGHGKISVFAVKMALATLCGGKIMDKLRYIFSMISDSSGVMVYGRYDQFLREVLKLPTAVFEGPSFGYTEQSARSCFSQQKKVTLNGFLDTLMSDPPPQCLVWLPLLHRLANVENVFHPVECSYCHSESMMGFRYRCQQCHNYQLCQDCFWRGHAGGSHSNQHQMKEYTSWKSPAKKLTNALSKSLSCASSREPLHPMFPDQPEKPLNLAHIVDTWPPRPVTSMNDTLFSHSVPSSGSPFITRSSPPKDSEVEQNKLLARAAPAFLKGKGIQYSLNVADRLADEHVLIGLYVNMLRNNPSCMLESSNRLDEEHRLIARYAARLAAESSSSQPPQQRSAPDISFTIDANKQQRQLIAELENKNREILQEIQRLRLEHEQASQPTPEKAQQNPTLLAELRLLRQRKDELEQRMSALQESRRELMVQLEGLMKLLKTQGAGSPRSSPSHTISRPIPMPIRSASACSTPTHTPQDSLTGVGGDVQEAFAQSSRRNLRNDLLVAADSITNTMSSLVKELNSEVGSETESNVDSEFARTQFEDLVPSPTSEKAFLAQIHARKPGYIHSGATTSTMRGDMVTEDADPYVQPEDENYENDSVRQLENELQMEEYLKQKLQDEAYQVSLQG
